Measured values from patent publication US20230235036A1, “ACVR1 (ALK2) RECEPTOR INHIBITION TO TREAT NEUROLOGICAL DISEASES” (The J. David Gladstone Institutes, a testamentary trust …, priority 2020, published 2023).

System: primary rat OPCs
Experiment: OPC-X-screen: OPC differentiation to MBP+ OLs or GFAP+ astrocytes in presence of fibrinogen
Type: cell-based
Conditions: myelin-promoting compound screen; fibrinogen 1.5 mg/ml; 3 days; benztropine, clemastine, quetiapine, miconazole, (±)U-50488 1 μM, clobetasol 5 μM, XAV-939 0.1 μM, DMH1 1 μM

SMILES: CN1CCC[C@@H]1CCO[C@](C)(c1ccccc1)c1ccc(Cl)cc1 [clemastine]
- OPC differentiation to mature MBP+ OLs under extrinsic inhibition by fibrinogen: did not overcome extrinsic inhibition of OPC differentiation by fibrinogen
